# At least one compound was matched to its structure with a doubt left.
# Legend:
# Format in all cases: cell-based, human
# [1] = tested on: CD138+ plasma cells from the RPMI 8226 and NCI-H929 MM cell lines; test: Clonogenic growth of CD138+ plasma cells isolated from MM cell lines; settings: FIGS. 10A and B, P<0.02 compared to the untreated control
# clonogenic MM cells = test: In vitro clonogenic growth of MM precursors (summary statements); settings: summary statement
# Description: Many agents are active in multiple myeloma (MM), but the majority of patients relapse. […] We further characterized clonogenic MM cells and stained cell lines using the Hoechst side population and Aldefluor assays. […] Furthermore, both the side population and Aldefluor assays were capable of identifying circulating clonotypic memory B cell populations within the peripheral blood of MM patients.
# CD138^− precursors or CD138^+ plasma cells were isolated from the RPMI 8226 or NCI-H929 cell lines and treated with each of the two humanized monoclonal antibodies, rituximab or alemtuzumab, and in combination with human complement that strongly enhances their in vitro activity through complement dependent cytoxicity. Neither complement alone nor the monoclonal antibodies with or without complement affected the clonogenic growth of CD138^+ plasma cells that lack the target antigens (FIG. 8B; P>0.3 for all groups compared to the untreated control).
# Although stem cells have been identified in an increasing number of human cancers, the clinical relevance and implications of these findings remain unclear. Standard response criteria used to measure the clinical efficacy of anti-cancer treatments primarily reflect changes in disease bulk and activity against mature tumor cells. […]
# [2] = tested on: CD138neg MM progenitors derived from primary clinical specimens; test: Clonogenic recovery of CD138neg MM progenitors from primary clinical samples; settings: 4 MM patients; FIG. 10C; P>0.2 compared to the untreated control
smiles,measurement,setting,value
C[C@@H]1C[C@H]2[C@@H]3CCC4=CC(=O)C=C[C@]4(C)[C@@]3(F)[C@@H](O)C[C@]2(C)[C@@]1(O)C(=O)CO [dexamethasone],clonogenic growth of CD138+ plasma cells,[1],inhibited
same,effect of anti-myeloma agents on CD138neg precursors / clonogenic MM progenitors,clonogenic MM cells,little effect
same,effect on clonogenic MM precursors from patients,[2],not significantly affected

# Source: patent US8748113B2, “Methods for detecting and monitoring circulating cancer stem cells” (The Johns Hopkins University, priority 2007, dated 2014)
